The source of these data is PubChem BioAssay AID1487 (National Center for Advancing Translational Sciences (NCATS), 2009).

“And” between values parts separate entries of the source, which are not always exact repeats. Identical values can stand only once. Some of the results follow. Further columns of the screen follow, without active or inactive calls. The list favours compounds with an active or inconclusive main result. Potencies come from curve fits of mixed quality, noted in brackets.

A short description of the assay: qHTS Assay for Modulators of Lamin A Splicing. The note with it: HeLa LMNA splicing GFP/RFP minigene ratio, 48 h. In outline:
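S3 HeLa cells stably expressing lamin A-EGFP splicing minigene plus DsRed2, 600 cells/well, 48 h compound exposure at 37C. Laser-scanning cytometry; analysed as GFP (500-530 nm)/RFP (575-640 nm) total intensity ratio; 0.5% DMSO vehicle.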

Setting [1] is: measured here: RFP viability control channel.
[2] abbreviates: measured here: GFP splicing reporter channel.

Turning to `Clc1cccc(CSc2nnc(-c3c[nH]c4ccccc34)o2)c1`, the concentration at half-maximal activity (AC50) under setting [1] is 35.5 µM [rising, single point].
With `COc1ccccc1C(=O)N/C(N)=N/c1nc2ccccc2o1`, the AC50 is, setting by setting: under setting [2], 14.1 µM [falling, single point]; under setting [1], 11.2 µM [falling, partial curve].
`Cc1cc(Nc2cccc(Cl)c2)nc2ccc(NC(=O)c3cncc(Br)c3)cc12`: the AC50 is, setting by setting: under setting [2], 11.2 µM [falling, partial curve]; under setting [1], 10 µM [falling, partial curve].
`O=S(=O)(/N=C(\c1ccccc1F)N1CCCCC1)c1ccccc1`: under setting [1], the concentration at half-maximal activity (AC50) is 12.6 µM [falling, partial curve].
Same read-out and setting: the same measure for `Cc1ccc(C2Nc3ccc4ccccc4c3C3=C2C(=O)CC(C)(C)C3)o1` (stereo unspecified): 14.1 µM [rising, partial curve, poor fit].
On to `O=C(N=Nc1c(O)[nH]c2ccc(Br)cc12)c1ccccc1-n1cccc1`, for which the concentration at half-maximal activity (AC50) was 35.5 µM [rising, single point] under setting [2] and 7.08 µM [rising, partial curve] under setting [1].
Turning to `COc1ccc(-c2cc(C(=O)NC3=NCCS3)c3ccccc3n2)cc1OC`, under setting [2], the concentration at half-maximal activity (AC50) was 2 µM [falling, partial curve].
As to `O=C(NC1CCCCCC1)C1CCN(c2nc3ccccc3o2)CC1`, under setting [1], the AC50 was 7.08 µM [rising, full curve].
Consider `COC(=O)c1cccc(NC2=NS(=O)(=O)c3ccccc32)c1`, for which the AC50 by setting is: under setting [2], 0.00316 µM [rising, full curve, poor fit]; under setting [1], 0.01 µM [rising, full curve, poor fit].
`CCn1c(SCc2c(F)cccc2Cl)nc(=O)c2c(C(=O)OC)cc(C3CC3)nc21`: the concentration at half-maximal activity (AC50) reads like this: under setting [2], 31.6 µM [falling, single point]; under setting [1], 35.5 µM [falling, single point].
Regarding `CCC1CCCCN1S(=O)(=O)c1ccc(S(=O)(=O)N(Cc2ccccn2)CC2CCCO2)cc1` (stereo unspecified), the AC50 under setting [1] is 22.4 µM [rising, single point].
Regarding `OCC(O)C(O)C(O)C(O)CO` (stereo unspecified), the AC50 was 31.6 µM [falling, single point] under setting [2]; 15.8 µM [falling, single point] and 1 µM [falling, single point] under setting [1].
Regarding `CN1CCN(C(=O)C2CCN(c3ncc(C(F)(F)F)cc3Cl)CC2)CC1`, under setting [1], the concentration at half-maximal activity (AC50) is 35.5 µM [falling, single point].
As for `Cc1nn(CC(=O)Nc2ccc(OC(F)(F)F)cc2)c(=O)c2c(C)n(-c3ccc(Cl)cc3)nc12`, the AC50 was 0.282 µM [rising, full curve, poor fit] under setting [2] and 0.0398 µM [rising, full curve, poor fit] under setting [1].
